Counter-ions that a name gives are not always drawn. This is one part of the list. Many values rest on one well or one pass, so single values are uncertain.
Test system: patient-derived ovarian cancer cells (PDC)
Experiment: cell growth inhibition ratio vs untreated control (CCK8); higher = stronger inhibition of cell viability
Conditions: 10 µM; 48 h
Experimental: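 Natural product library (Topscience) screened at 10 µM final concentration for 48 h on ovarian cancer A2780 cells and patient-derived ovarian cancer cells (PDC) in 96-well plates; viability read by CCK8 and reported as inhibition ratio (%) relative to untreated control. Single-dose primary screen.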

Compound | cell growth inhibition ratio
COc1cc(C(=O)O[C@H]2[C@@H]3C=CO[C@@H](O[C@@H]4O[C@H](CO)[C@@H](O)[C@H](O)[C@H]4O)[C@@H]3[C@@]3(CO)O[C@@H]23)ccc1O [Picroside II] | -11.4%
CCCCCCCCC(=O)NCc1ccc(O)c(OC)c1 [Nonivamide] | -3.25%
COc1cc([C@@H]2c3cc4c(cc3[C@@H](O)[C@H]3COC(=O)[C@H]23)OCO4)cc(OC)c1O [4'-Demethylepipodophyllotoxin] | 42%
COC1=C[C@]23CCCN2CCc2cc4c(cc2[C@@H]3[C@@H]1O)OCO4 [Cephalotaxine] | -2.64%
O=C1C[C@@H]2OCC=C3CN4CC[C@]56c7ccccc7N1[C@H]5[C@H]2[C@H]3C[C@H]46 [Strychnine] | -13.3%
CC(=O)O[C@H]1[C@H]2O[C@]23[C@@H]2CC[C@@H]4C[C@@H](O)CC[C@]4(C)[C@H]2CC[C@]3(C)[C@H]1c1ccc(=O)oc1 [Cinobufagin] | 75.2%
NCCc1c[nH]c2ccc(O)cc12 [Serotonin hydrochloride] | 1.96%
C[C@H]1CC(=O)C[C@@H]2CC[C@H]3[C@@H]4CC[C@H](O)[C@@]4(C)CC[C@@H]3[C@]21C [Mesterolone] | 13.1%
CC(C)(C)[C@]1(O)CC2OC(=O)CC23C(=O)OC2OC(=O)[C@H](O)C231 (some centres undefined) [Bilobalide] | 4.87%
COc1ccc(C(=O)O)cc1OC [Veratric acid] | -0.589%
COc1ccc2c(c1OC)CN1CCc3cc4c(cc3C1C2)OCO4 (centres undefined) [Tetrahydroberberine THB] | 2.64%
CC[C@H](C)[C@H]1O[C@]2(C=C[C@@H]1C)C[C@@H]1C[C@@H](C/C=C(\C)[C@@H](O[C@H]3C[C@H](OC)[C@@H](O[C@H]4C[C@H](OC)[C@@H](O)[C@H](C)O4)[C@H](C)O3)[C@@H](C)/C=C/C=C3\CO[C@@H]4[C@H](O)C(C)=C[C@@H](C(=O)O1)[C@]34O)O2.CO[C@H]1C[C@H](O[C@H]2[C@H](C)O[C@@H](O[C@@H]3/C(C)=C/C[C@@H]4C[C@@H](C[C@]5(C=C[C@H](C)[C@@H](C(C)C)O5)O4)OC(=O)[C@@H]4C=C(C)[C@@H](O)[C@H]5OC/C(=C\C=C\[C@@H]3C)[C@]54O)C[C@@H]2OC)O[C@@H](C)[C@@H]1O [Abamectin] | -4.45%
COc1cc([C@@H]2c3cc4c(cc3[C@H](O)[C@H]3COC(=O)[C@H]23)OCO4)cc(OC)c1OC [Podophyllotoxin] | 55.2%
CN(CC(=O)O)C(=N)NP(=O)(O)O [Creatine phosphate disodium salt] | 7.46%
COc1cc(C(=O)O)cc(OC)c1OC [Gallic acid trimethyl ether] | -6.36%
CCC12C=CCN3CC[C@@]4(c5ccc(OC)cc5N(C)[C@H]4[C@@](O)(C(=O)OC)[C@@H]1OC(C)=O)[C@@H]32 (some centres undefined) [Vindoline] | -4.71%
CC(C)=CCC[C@](C)(O)[C@H]1CC[C@]2(C)[C@@H]1[C@H](O)C[C@@H]1[C@@]3(C)CC[C@H](O)C(C)(C)[C@@H]3[C@@H](O[C@@H]3O[C@H](CO)[C@@H](O)[C@H](O)[C@H]3O)C[C@]12C [Ginsenoside Rh1] | 2.56%

Random excerpt: 2 compounds from above
Compound | cell growth inhibition ratio
COc1cc(C(=O)O[C@H]2[C@@H]3C=CO[C@@H](O[C@@H]4O[C@H](CO)[C@@H](O)[C@H](O)[C@H]4O)[C@@H]3[C@@]3(CO)O[C@@H]23)ccc1O [Picroside II] | -11.4%
CN(CC(=O)O)C(=N)NP(=O)(O)O [Creatine phosphate disodium salt] | 7.46%

Following part

Compound | cell growth inhibition ratio
C[C@@H]1CC[C@@]2(OC1)O[C@H]1[C@@H](O)[C@H]3[C@@H]4CC[C@H]5C[C@@H](O[C@@H]6O[C@H](CO)[C@H](O[C@@H]7O[C@H](CO)[C@@H](O)[C@H](O[C@@H]8OC[C@@H](O)[C@H](O)[C@H]8O)[C@H]7O[C@@H]7O[C@H](CO)[C@H](O)[C@H](O[C@@H]8O[C@H](CO)[C@@H](O)[C@H](O)[C@H]8O)[C@H]7O)[C@H](O)[C@H]6O)[C@H](O)C[C@]5(C)[C@H]4CC[C@]3(C)[C@H]1[C@@H]2C [Digitonin] | 91.9%
COc1ccc2c(c1)[nH]c1c(C)nccc12 [Harmine hydrochloride] | 37.2%
CC(C)=CCOc1c2occc2cc2ccc(=O)oc12 [Imperatorin] | 7.56%
C=C[C@@H]1C2=CCOC(=O)C2=CO[C@H]1O[C@@H]1O[C@H](CO)[C@@H](O)[C@H](O)[C@H]1O [Gentiopicrin] | 6.41%
COc1cc2c(cc1OC)[C@@H](Cc1ccc(O)c(Oc3cc4c(cc3OC)CCN(C)[C@@H]4Cc3ccc(O)cc3)c1)N(C)CC2.[O-][Cl+3]([O-])([O-])O [Liensinine Perchlorate] | 13.3%
COc1cc2c(cc1OC)C13CCN4CC5=CCOC6CC(=O)N2C1C6C5CC43 (centres undefined) [Brucin] | 3.34%
Cc1c2ccncc2c(C)c2c1[nH]c1ccccc12 [Ellipticine] | 53.8%
C[C@@H]1CC[C@@]2(OC1)O[C@H]1C[C@H]3[C@@H]4CC=C5C[C@@H](O[C@@H]6O[C@H](CO)[C@@H](O[C@@H]7O[C@@H](C)[C@H](O)[C@@H](O)[C@H]7O)[C@H](O)[C@H]6O[C@@H]6O[C@@H](C)[C@H](O)[C@@H](O)[C@H]6O)CC[C@]5(C)[C@H]4CC[C@]3(C)[C@H]1[C@@H]2C [Dioscin] | 92.6%
NCCc1ccc(O)cc1 [Tyramine] | 62.7%
CCCC[N+]1(C)[C@@H]2C[C@@H](OC(=O)[C@H](CO)c3ccccc3)C[C@H]1[C@@H]1O[C@@H]12 (some centres undefined) [Scopolamine butylbromide] | -14.4%
CC(=O)O[C@H]1CC[C@H]2[C@@H]3CCC4=CC(=O)CCC4=C3C=C[C@]12C [Trenbolone acetate] | -14%
CNCC(O)c1ccc(O)cc1 (centres undefined) [Synephrine] | 11.4%
CC1=C2C(=O)[C@H]3[C@@H](CC=C4C[C@@H](O)CC[C@@]43C)[C@@H]2CC[C@]12O[C@@H]1C[C@H](C)CN[C@H]1[C@H]2C [Jervine] | -4.83%
CC1=C2[C@H]3OC(=O)[C@@H](C)[C@@H]3CC[C@@]2(C)C=CC1=O [α-santonin] | -3.12%
COc1ccc(Cc2nccc3cc(OC)c(OC)cc23)cc1OC [Papaverine hydrochloride] | 4.36%
N#CCCN [3-Aminopropionitrile fumarate] | -11.3%
O=C(O)CC[N+](=O)[O-] [Bovinocidin] | -24.4%

Reference: the supplement of paper PMC10373366
